## Results of single-concentration screens

Measurements from “University of Dundee, Small-Polar-MMV Screening Library” (2021), ChEMBL document CHEMBL3988442.

Each number is a percent effect as filed. How 0% and 100% were set is not recorded. Most values in the screen are low, and negative values occur. The compounds are a random part of those screened.

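Assay of Toxoplasma gondii numbers, read through their beta-galactosidase reporter with a colour substrate. Concentration: 50 µM. The record gives no direction; the compounds picked for IC50 retests had high values, so higher reads as fewer parasites. Size under these conditions: about 18,000 compounds, about 170 of them at 50% or above in at least one test.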

Compound,Percent Effect
c1ccc(CNCCCOc2ccccn2)nc1,-1.805
O=S(=O)(CCCF)NCc1ccncc1,2.669
CCC(C)NC(=O)CCN1C(=O)CCC1=O (stereo not drawn),-1.682
O=C1CC(c2ccccc2)NCCN1 (stereo not drawn),3.541
CN(C(=O)NCC1CCCO1)C1(CCO)CCOCC1 (stereo not drawn),-2.363
COc1ccnc2c1CCCC2N (stereo not drawn),-48.34
NC(=O)C(NC(=O)C1CC=CC1)c1ccc(F)cc1 (stereo not drawn),-2.351
CCOc1ncccc1C(=O)NCC(C)N1CCCC1 (stereo not drawn),52.4
COc1cc(C)c(NC(C)C(=O)NC(N)=O)cc1OC (stereo not drawn),-0.2921
Cc1ccc(CNCCOc2ccccn2)o1,-6.701
CCC(=O)N1CCCN(c2ccncc2Cl)CC1,6.582
O=C(CCn1cccc1)NCc1ccco1,-9.927
COc1ccccc1CCNC(=O)CC1CCNC1 (stereo not drawn),6.404
COCCN(Cc1cccs1)C(=O)C1CCNC1 (stereo not drawn),-19.12
CN(C)C(=O)COC(=O)c1ccc(Cl)cc1O,-7.673
CN(CC(N)=O)C(=O)c1ccc(OC2CCC2)cc1Cl,9.663
COC(CNC(=O)c1ccn(C)c(=O)c1)C(C)(C)C (stereo not drawn),3.283
Cc1c(S(N)(=O)=O)cnn1C,-8.681

Some entries from above, unchanged:

For COc1ccnc2c1CCCC2N (stereo not drawn) the result was -48.34%.
For COCCN(Cc1cccs1)C(=O)C1CCNC1 (stereo not drawn) the result was -19.12%.